Measurements published in patent publication US10442777B2, “Use of substituted oxadiazoles for combating phytopathogenic fungi” (BASF SE, priority 2014, dated 2019).
Some results were stated once for a whole list of compounds, not compound by compound.

Tested on: Phakopsora pachyrhizi
Assay: Curative action against rust of soybean (glass house trial)
Assay type: in vivo
Conditions: 600 ppm, sprayed 1 day after inoculation, assessed after 14 days, untreated 80-100%

Q: How did the diseased leaf area turn out when O=C(Nc1ccccc1)c1ccc(-c2noc(C(F)(F)F)n2)cc1 [I-1] was run?
A: at most 20%
